Test results as given in PMC4358907.
These are yes or no findings as the source states them, for the method shown. In cells and extracts the contact can be indirect. Here binding means that the protein was enriched with, or labelled near, the bait; the list need not be complete. For some assays here: No binding means not detected with the bait. Sequences can lack the tags named with a protein.

T1: One-STrEP-tag:ATARP4 fusion protein (Arabidopsis thaliana) (UniProt Q84M92)
T1 sequence: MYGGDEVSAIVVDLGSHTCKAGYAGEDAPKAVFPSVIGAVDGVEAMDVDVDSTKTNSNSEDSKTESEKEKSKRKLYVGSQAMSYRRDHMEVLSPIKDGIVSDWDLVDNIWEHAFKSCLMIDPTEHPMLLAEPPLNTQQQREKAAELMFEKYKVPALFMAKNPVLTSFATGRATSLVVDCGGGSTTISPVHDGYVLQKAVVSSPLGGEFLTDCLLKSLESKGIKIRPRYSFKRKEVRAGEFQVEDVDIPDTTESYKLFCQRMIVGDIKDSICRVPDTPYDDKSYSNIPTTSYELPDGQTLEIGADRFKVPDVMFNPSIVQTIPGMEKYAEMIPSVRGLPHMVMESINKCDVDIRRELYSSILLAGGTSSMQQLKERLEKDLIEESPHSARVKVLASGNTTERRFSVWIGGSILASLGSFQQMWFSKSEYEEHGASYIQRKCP

T2: One-STrEP-tag:ATSWC4 fusion protein (Arabidopsis thaliana) (UniProt Q8VZL6)
T2 sequence: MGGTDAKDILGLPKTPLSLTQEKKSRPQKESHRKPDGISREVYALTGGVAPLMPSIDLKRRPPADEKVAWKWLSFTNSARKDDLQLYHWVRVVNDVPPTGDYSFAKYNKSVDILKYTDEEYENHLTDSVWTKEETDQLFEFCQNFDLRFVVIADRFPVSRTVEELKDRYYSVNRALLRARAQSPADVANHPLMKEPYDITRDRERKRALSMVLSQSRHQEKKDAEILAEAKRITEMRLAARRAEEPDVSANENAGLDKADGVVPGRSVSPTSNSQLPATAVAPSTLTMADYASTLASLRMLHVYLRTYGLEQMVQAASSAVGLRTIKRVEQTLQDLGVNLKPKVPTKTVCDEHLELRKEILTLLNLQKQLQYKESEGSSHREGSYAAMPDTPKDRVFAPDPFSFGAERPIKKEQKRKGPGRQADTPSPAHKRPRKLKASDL


Assays:
[1] = target: T1, One-STrEP-tag:ATARP4 fusion protein (Arabidopsis thaliana); assay: affinity purification with mass spectrometry; One-STrEP-tagged bait stably expressed in Arabidopsis T87 suspension cells; extract in buffer H or L loaded on Strep-Tactin Superflow resin, seven washes (100 mM Tris-HCl pH 8.0, 150 mM NaCl), eluted with 2.5 mM desthiobiotin; MS/MS (Orbitrap Velos); hits of controls with no bait or Strep-GFP removed
[2] = target: T2, One-STrEP-tag:ATSWC4 fusion protein (Arabidopsis thaliana); assay: as above

Binder	binding [1]	binding [2]
BSH (protein, UniProt P93045 1-240) MKGLVSTGWKGPVKFRMPTAENLVPIRLDIQFEGQRYKDAFTWNPSDPDNEVVIFAKRTVKDLKLPYAFVTQIAQSIQSQLSDFRAYEGQDMYTGEKIIPIKLDLRVNHTLIKDQFLWDLNNFESDPEEFARTLCKDLGVEDPEVGPAVAFAIREQLYEIAIQSVASARESRLSKKGRRGSDHGSASKASGLSMDLMKLFSFKSSVVRKRKDLDVYEPVVDLLTSEEVDALEAREERHAR	binds	no binding
ARP7 (protein, UniProt Q8L4Y5 1-363) MEALVVDAGSKFLKAGAAIPDQSPAMIIPSQMKRMVDDGSSSADNPTTVFEDVTLDPIERGLIRDWDAMEDLLRYVVYTGLGWEEGNEGNILFTDPLCTPKAIREQLVQLMFETFNVSGFYASEQAVLSLYAVGRISGCTVDIGHGKIDIAPVLEGAVQHIASKRFELGGTELTKLFAQELGKTNPSMNLSMSDVEKLKEQYANCAEDEIAYKKTQNCEIEQHTLPDGQVISIGRERYSVGEALFQPSILGLEEHGIVEQLVRIISTVSSENHRQLLENTVLCGGTTSMTGFESRFQKEANLCSSAIRPTLVKPPEYMPENLGMYSAWVGGAILAKVVFPQNQHVTKADYDETGPSVVHRKCF	binds	no binding
HAM1 (protein, UniProt Q9FLF7 1-445) MGSSADTETAMIIATPASNHNNPATNGGDANQNHTSGAILALTNSESDASKKRRMGVLPLEVGTRVMCQWRDGKYHPVKVIERRKNYNGGHNDYEYYVHYTEFNRRLDEWIKLEQLDLDSVECALDEKVEDKVTSLKMTRHQKRKIDETHVEGHEELDAASLREHEEFTKVKNIATIELGKYEIETWYFSPFPPEYNDCVKLFFCEFCLSFMKRKEQLQRHMRKCDLKHPPGDEIYRSSTLSMFEVDGKKNKVYAQNLCYLAKLFLDHKTLYYDVDLFLFYILCECDDRGCHMVGYFSKEKHSEEAYNLACILTLPPYQRKGYGKFLIAFSYELSKKEGKVGTPERPLSDLGLVSYRGYWTRILLDILKKHKGNISIKELSDMTAIKAEDILSTLQSLELIQYRKGQHVICADPKVLDRHLKAAGRGGLDVDVSKMIWTPYKEQS	binds	binds
ING2 (protein, UniProt B3H615 1-262) MAIARTGVYVDDYLEYASTFPAELQRLLNTVRELDERSQSLINQTRQQTKYCLGLASQSSKKGNGNHYNNGGLDEEETIEKMRKEIESSQENALSLCTEKVLLARQAYDLIDSHVKRLDEDLNNFAEDLKQEGKIPPDEPSVLPPLPIVPKAEKRKSFYGTPQPKKIDYRDRDWDRDRDFELMPPPGSNRKDLMPIEEQPIDPNEPTYCVCHQVSFGDMIACDNENCQGGEWFHYTCVGLTPETRFKGKWYCPTCRLLPQSH	binds	binds

Now from value to binder:

binding [1]	binding [2]	Binder
binds	no binding	SWI3D (protein, UniProt Q8VY05 1-985) MEEKRRDSAGTLAFAGSSGDSPASEPMPAPRRRGGGLKRKANALGGSNFFSSAPSKRMLTREKAMLASFSPVHNGPLTRARQAPSIMPSAADGVKSEVLNVAVGADGEKPKEEEERNKAIREWEALEAKIEADFEAIRSRDSNVHVVPNHCGWFSWEKIHPLEERSLPSFFNGKLEGRTSEVYREIRNWIMGKFHSNPNIQIELKDLTELEVGDSEAKQEVMEFLDYWGLINFHPFPPTDTGSTASDHDDLGDKESLLNSLYRFQVDEACPPLVHKPRFTAQATPSGLFPDPMAADELLKQEGPAVEYHCNSCSADCSRKRYHCPKQADFDLCTECFNSGKFSSDMSSSDFILMEPAEAPGVGSGKWTDQETLLLLEALEIFKENWNEIAEHVATKTKAQCMLHFLQMPIEDAFLDQIDYKDPISKDTTDLAVSKDDNSVLKDAPEEAENKKRVDEDETMKEVPEPEDGNEEKVSQESSKPGDASEETNEMEAEQKTPKLETAIEERCKDEADENIALKALTEAFEDVGHSSTPEASFSFADLGNPVMGLAAFLVRLAGSDVATASARASIKSLHSNSGMLLATRHCYILEDPPDNKKDPTKSKSCSADAEGNDDNSHKDDQPEEKSKKAEEVSLNSDDREMPDTDTGKETQDSVSEEKQPGSRTENSTTKLDAVQEKRSSKPVTTDNSEKPVDIICPSQDKCSGKELQEPLKDGNKLSSENKDASQSTVSQSAADASQPEASRDVEMKDTLQSEKDPEDVVKTVGEKVQLAKEEGANDVLSTPDKSVSQQPIGSASAPENGTAGGNPNIEGKKEKDICEGTKDKYNIEKLKRAAISAISAAAVKAKNLAKQEEDQIRQLSGSLIEKQLHKLEAKLSIFNEAESLTMRVREQLERSRQRLYHERAQIIAARLGVPPSMSSKASLPTNRIAANFANVAQRPPMGMAFPRPPMPRPPGFPVPGSFVAATTMTGSSDPSPGSDNVSSV
binds	no binding	SWI3C (protein, UniProt Q9XI07 1-807) MPASEDRRGKWKRKKRGGLSAARKPKQEEEDMEEEDEENNNNNNEEMDDVENADELQQNGGATPDPGLGIGEVVEDSGSRISDFPAVVKRVVIRPHASVMAVVAAERAGLIGETRGQGSLPALENISFGQLQALSTVPADSLDLERSDGSSSAYVISPPPIMDGEGVVKRFGDLVHVLPMHSDWFAPNTVDRLERQVVPQFFSGKSPNHTPESYMEFRNAIVSKYVENPEKTLTISDCQGLVDGVDIEDFARVFRFLDHWGIINYCATAQSHPGPLRDVSDVREDTNGEVNVPSAALTSIDSLIKFDKPNCRHKGGEVYSSLPSLDGDSPDLDIRIREHLCDSHCNHCSRPLPTVYFQSQKKGDILLCCDCFHHGRFVVGHSCLDFVRVDPMKFYGDQDGDNWTDQETLLLLEAVELYNENWVQIADHVGSKSKAQCILHFLRLPVEDGLLDNVEVSGVTNTENPTNGYDHKGTDSNGDLPGYSEQGSDTEIKLPFVKSPNPVMALVAFLASAVGPRVAASCAHESLSVLSEDDRMKSEGMQGKEASLLDGENQQQDGAHKTSSQNGAEAQTPLPQDKVMAAFRAGLSAAATKAKLFADHEEREIQRLSANIVNHQLKRMELKLKQFAEIETLLMKECEQVEKTRQRFSAERARMLSARFGSPGGISPQTNNLQGMSLSTGGNNINSLMHQQHQQQQASATSQPSIIPGFSNNPQVQAQMHFMARQQQQQQQQQQQQQQAFSFGPRLPLNAIQTNAGSTASPNVMFGNNQLNNPAAAGAASINQPSFSHPMVRSSTGSGSGSGLGLN
binds	no binding	MINU2 (protein, UniProt F4K128 1-1064) MVKQLQEQEENDPVEKTKSLISALNYLSRDLLLPSHLYASVSSIYHASVSDLSPSPPLRGNSYTPNRGDLMSEFEDALLQQRLNYESGSRLAELKETRYKNRIHNRLSQLEGLPSNRGEDLQEKCLLELYGLKLQELQCRVRGEVSAEYWLRLNCADPERQLYDWGMMRLPRRMYGVGDSFVMEADDQFRNKRDAERLLRLEEEEKNLIETTQRKFFAEVLNAVREFQLQIQASHRRCKQRNDGVQAWHGKQRQRATRAEKLRIMALKSDDQEEYMKLAKESKNEKLTLFLEETNKIFVSLGAAVQRQKDAKLSENTKLLKGSESDLSDVDAPEDVLPAQDIEIIDSDNNDDSNDLLEGERQFNLAIHSIQEKVTKQPSLLQGGELRSYQLEGLQWMVSLYNNDYNGILADEMGLGKTIQTIALIAYLLESKDLHGPHLILAPKAVLPNWENEFALWAPSISAFLYDGSKEKRTEIRARIAGGKFNVLITHYDLIMRDKAFLKKIDWNYMIVDEGHRLKNHECALAKTLGTGYRIKRRLLLTGTPIQNSLQELWSLLNFLLPHIFNSIHNFEEWFNTPFAECGSASLTDEEELLIINRLHHVIRPFLLRRKKSEVEKFLPGKTQVILKCDMSAWQKLYYKQVTDVGRVGLHSGNGKSKSLQNLTMQLRKCCNHPYLFVGADYNMCKKPEIVRASGKFELLDRLLPKLKKAGHRILLFSQMTRLIDLLEIYLSLNDYMYLRLDGSTKTDQRGILLKQFNEPDSPYFMFLLSTRAGGLGLNLQTADTIIIFDSDWNPQMDQQAEDRAHRIGQKKEVRVFVLVSIGSIEEVILERAKQKMGIDAKVIQAGLFNTTSTAQDRREMLEEIMSKGTSSLGEDVPSEREINRLAARTEEEFWMFEQMDEERRKKENYKTRLMEEKEVPEWAYTSETQEDKTNAKNHFGSLTGKRKRKEAVYSDSLSDLQWMKAMESEDEDASKVSQKRKRTDTKTRMSNGSKAEAVLSESDEEKEEEEEERKEESGKESEEENEKPLHSWKTNKKKRSRYPVMTSSPNSRGKGSSKGSKRN
